No constants are given. Whether binding was seen depends on the method and setting. Binding seen in cells or lysates may run through a third protein. Some entries that bind do so weakly or less than the wild type. Where a sequence is shown, tags or fusion partners need not be part of it.
Target: T1, N-His-aIF5A produced in Sso PH1-16 (pMJ05-N-His-aIF5A) (Sulfolobus solfataricus) (UniProt Q97ZE8)
T1 sequence (chain, modified, recognised by anti-hypusine antibodies (hypusine or deoxyhypusine)): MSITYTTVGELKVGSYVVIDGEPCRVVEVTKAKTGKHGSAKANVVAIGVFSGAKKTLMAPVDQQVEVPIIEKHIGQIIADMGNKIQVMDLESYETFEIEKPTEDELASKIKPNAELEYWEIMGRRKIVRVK
Assay: pull-down; more stringent purification procedures of His-tagged aIF5A from Sso PH1-16 lysates (not shown)

The chains behind the UniProt entries cited, without tags or fusion partners.
UniProt Q97ZF1: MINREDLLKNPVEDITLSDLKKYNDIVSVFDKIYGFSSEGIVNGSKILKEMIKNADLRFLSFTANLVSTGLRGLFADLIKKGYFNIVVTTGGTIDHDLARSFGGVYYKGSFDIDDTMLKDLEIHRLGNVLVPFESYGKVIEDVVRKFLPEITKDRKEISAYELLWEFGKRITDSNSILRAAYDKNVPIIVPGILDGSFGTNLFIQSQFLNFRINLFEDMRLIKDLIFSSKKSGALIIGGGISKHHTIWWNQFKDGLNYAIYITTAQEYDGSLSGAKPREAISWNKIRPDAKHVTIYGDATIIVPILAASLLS

- binding: binds
Substance: Deoxyhypusine synthase (aDHS) (from UniProt Q97ZF1 1-312) (enzyme)

From paper PMC6105217
